Data as given in PMC12431657, “Discovery and mechanistic insights of dibenzoylmethane as a broad spectrum inhibitor of coronavirus” (PLOS Pathogens, 2025).
Where two headings read alike, the source gives them in different places. The campaign covered roughly 3,300 compounds. About 60 (2%) showed an effect of 50% or more. The list shows a part of the results.

Tested on: HCoV-OC43
Parameters: species or system RD; HTS, protection from HCoV-OC43 induced cell death, luminescent cell viability (CellCounting-Lite 2.0), inhibition rate
Conditions: 24 h post infection, 1 h compound pre-incubation, 10 µM, inhibitor

Row | Compound | OC43 Inhibition rate | OC43 Inhibition rate (OC43 Inhibition rate, 24 h)
1 | CCCCCCCCC(=O)OCC [Ethyl nonanoate] | 2.4% | –
2 | c1ccc2c(-c3nccs3)c[nH]c2c1 [Camalexin] | 23.4% | –
3 | CC(C)=CCc1cc(-c2coc3cc(O)ccc3c2=O)ccc1O [Neobavaisoflavone] | 18.1% | –
4 | C1CCN2C[C@H]3C[C@H](CN4CCCC[C@@H]34)[C@H]2C1 [(+)-Sparteine (sulfate pentahydrate)] | – | 3.3%
5 | COc1cc2ccc(=O)oc2c(OC)c1O [Isofraxidin] | 0.6% | –
6 | CCC/C=C1\OC(=O)C2=C1CC[C@@H](O)[C@H]2O [Senkyunolide H] | -0.5% | –
7 | CC(=O)O[C@H]1C[C@H](O[C@H]2[C@@H](O)C[C@H](O[C@H]3[C@@H](O)C[C@H](O[C@H]4CC[C@@]5(C)[C@H](CC[C@@H]6[C@@H]5C[C@@H](O)[C@]5(C)[C@@H](C7=CC(=O)OC7)CC[C@]65O)C4)O[C@@H]3C)O[C@@H]2C)O[C@H](C)[C@H]1O[C@@H]1O[C@H](CO)[C@@H](O)[C@H](O)[C@H]1O [Lanatoside C] | -7.7% | –
8 | O=C(O)C#Cc1ccccc1 [Phenylpropiolic acid] | -0.8% | –
9 | O[C@H]1[C@H](O)[C@@H](O)[C@H](O)[C@@H](O)[C@@H]1O [Scyllo-Inositol] | -3.6% | –
10 | O=C(O)CCC(=O)OC[C@@H](NC(=O)C(Cl)Cl)[C@H](O)c1ccc([N+](=O)[O-])cc1 [Chloramphenicol succinate (sodium)] | 0% | –
11 | C[C@@H]1CCCC2=CC(=O)[C@@H]3[C@@H](C3(C)C)[C@]21C [Aristolone] | -0.3% | –
12 | COc1c(O[C@@H]2O[C@H](CO)[C@@H](O)[C@H](O)[C@H]2O)cc2c(c1O)C(=O)c1c(cc(C)c(O)c1OC)C2=O [Aurantio-obtusin β-D-glucoside] | -0.2% | –
13 | CC(C)=C[C@H]1C[C@](C)(O)[C@@H]2[C@H]3CC[C@@H]4[C@@]5(C)CC[C@H](O[C@@H]6OC[C@H](O)[C@H](O[C@@H]7O[C@H](CO)[C@@H](O)[C@H](O)[C@H]7O)[C@H]6O[C@@H]6O[C@@H](CO)[C@H](O)[C@H]6O)C(C)(C)[C@@H]5CC[C@@]4(C)[C@@]34CO[C@@]2(C4)O1 [Bacopaside X] | -2.4% | –
14 | CCn1cc(C(=O)O)c(=O)c2ccc(C)nc21 [Nalidixic acid] | 0.1% | –
15 | O=C(O)/C=C/c1c[nH]c2ccccc12 [trans-3-Indoleacrylic acid] | 1.8% | –
16 | COc1ccc(-c2oc3c(CC=C(C)C)c(O[C@@H]4O[C@H](CO)[C@@H](O)[C@H](O)[C@H]4O)cc(O)c3c(=O)c2O[C@@H]2O[C@@H](C)[C@H](O)[C@@H](O)[C@H]2O)cc1 [Icariin] | 0.6% | –
17 | C[C@H]1[C@@H](O)O[C@@H]2O[C@@]3(C)CC[C@H]4[C@H](C)CC[C@@H]1[C@@]24OO3 [Dihydroartemisinin] | 19.3% | –
18 | C/C=C1\C[C@@H](C)[C@](O)(CO)C(=O)OCC2=CCN3CC[C@@H](OC1=O)[C@@H]23 [Usaramine] | -5.7% | –
19 | CC1CC[C@@]2(OC1)O[C@H]1C[C@H]3[C@@H]4CC=C5C[C@@H](O)C[C@@H](O)[C@]5(C)[C@H]4CC[C@]3(C)[C@H]1[C@@H]2C (stereo partly drawn) [25(R,S)-Ruscogenin] | 25.3% | –
20 | COc1ccc(-c2cc(=O)c3c(OC)cc(OC)c(OC)c3o2)cc1 [6-Demethoxytangeretin] | 6.2% | –

Row | Compound | OC43 Inhibition rate | OC43 Inhibition rate (OC43 Inhibition rate, 24 h)
21 | Nc1nc(=O)c2[nH]c(=O)cnc2[nH]1 [Xanthopterin (hydrate)] | -0.2% | –
22 | OC[C@@H](O)[C@@H](O)[C@@H](O)[C@@H](O)CO [Allitol] | -2.4% | –
23 | O=c1c(O)c(-c2cc(O)c(O)c(O)c2)oc2cc(O)cc(O)c12 [Myricetin] | 0% | –
24 | Oc1cc(O)c2ccc(-c3ccc(O)c(O)c3)[o+]c2c1 [Luteolinidin (chloride)] | 0.1% | –
25 | O=C(O)c1cc2ccccc2[nH]1 [Indole-2-carboxylic acid] | 0.8% | –
26 | NC1CCCNC1=O (stereo not shown) [3-Amino-2-piperidinone] | -0.7% | –
27 | O=c1c(O)cccc2cc(O)c(O)c(O)c12 [Purpurogallin] | 0.2% | –
28 | CC(=O)N[C@@H](CC(=O)N[C@@H](CCC(=O)O)C(=O)O)C(=O)O [Spaglumic Acid] | -3% | –
29 | COc1ccc(-c2cc(=O)c3c(O)cc(O)cc3o2)cc1 [Acacetin] | 23.4% | –
30 | COC(=O)[C@@H]1[C@H]2C[C@H]3c4[nH]c5ccccc5c4CCN3C[C@@H]2CC[C@@H]1O [Yohimbine] | – | 1.9%
31 | O=CNCC(=O)O [N-Formylglycine] | 0.4% | –
32 | C[C@@H]1O[C@@H](O[C@H]2[C@H](OC(=O)[C@]34CCC(C)(C)C[C@H]3C3=CC[C@@H]5[C@@]6(C)C[C@H](O)[C@H](O[C@@H]7O[C@H](CO)[C@@H](O)[C@H](O)[C@H]7O)[C@](CO)(C(=O)O)[C@@H]6CC[C@@]5(C)[C@]3(C)C[C@H]4O)OC[C@H](O)[C@@H]2O)[C@H](O)[C@H](O)[C@H]1O[C@@H]1OC[C@@H](O)[C@H](O[C@@H]2OC[C@](O)(CO)[C@H]2O)[C@H]1O [Platyconic acid A] | -1.7% | –
33 | O=C(O[C@@H]1Cc2c(O)cc(O)cc2O[C@H]1c1ccc(O)c(O)c1)c1cc(O)c(O)c(O)c1 [(-)-Catechin gallate] | 0.2% | –
34 | NCCS(=O)(=O)O [Taurine] | 0.5% | –
35 | COc1ccc(C(=O)O[C@H]2[C@H](O[C@@H]3[C@@H](OC(C)=O)[C@H](O[C@H]4C[C@H]5[C@@H]6CC=C7C[C@@H](O)CC[C@]7(C)[C@H]6CC[C@]5(C)[C@@]4(O)[C@H](C)C(=O)CCC(C)C)OC[C@@H]3O)OC[C@@H](O)[C@@H]2O)cc1 [OSW-1] | -4.2% | –
36 | CC1=C2[C@@H](OC1=O)[C@H](O)[C@]13[C@H]4C[C@@H](C(C)(C)C)[C@]15[C@@H](OC(=O)[C@@H]5O)O[C@@]23C(=O)O4 [Ginkgolide K] | 0.1% | –
37 | COc1ccc(-c2coc3cc(O[C@@H]4O[C@H](CO)[C@@H](O)[C@H](O)[C@H]4O)c(OC)c(O)c3c2=O)cc1O [Iristectorin A] | 1.8% | –
38 | COc1ccc(-c2cc(=O)c3c(O)cc(O[C@@H]4O[C@H](CO[C@@H]5O[C@@H](C)[C@H](O)[C@@H](O)[C@H]5O)[C@@H](O)[C@H](O)[C@H]4O)cc3o2)cc1 [Linarin] | 0% | –
39 | O=C(O)Cn1ccnc1 [Imidazol-1-yl-acetic acid] | -4.2% | –
40 | CC(=O)c1cc2c(CO)cc(O)cc2oc1=O [Armillarisin A] | -0.4% | –

Rewritten as tab-separated lines: part of the list above
Row	Compound	OC43 Inhibition rate	OC43 Inhibition rate (OC43 Inhibition rate, 24 h)
2	c1ccc2c(-c3nccs3)c[nH]c2c1 [Camalexin]	23.4%	–
3	CC(C)=CCc1cc(-c2coc3cc(O)ccc3c2=O)ccc1O [Neobavaisoflavone]	18.1%	–
4	C1CCN2C[C@H]3C[C@H](CN4CCCC[C@@H]34)[C@H]2C1 [(+)-Sparteine (sulfate pentahydrate)]	–	3.3%
5	COc1cc2ccc(=O)oc2c(OC)c1O [Isofraxidin]	0.6%	–

Continued.

Row | Compound | OC43 Inhibition rate | OC43 Inhibition rate (OC43 Inhibition rate, 24 h)
41 | CCCCCCCCCCCCCCCCCCCCCCCCC(=O)O [Pentacosanoic acid] | -3.4% | –
42 | CCCCCCCCOC(=O)c1cc(O)c(O)c(O)c1 [Octyl gallate] | 6.8% | –
43 | O=C1N[C@@H]2[C@@H](O)[C@@H](O)[C@H](O)[C@@H](CO)N2C1=O [Kifunensine] | -5.2% | –
44 | O=C(/C=C/c1ccc(O)c(O)c1)O[C@@H](C(=O)O)[C@@H](OC(=O)/C=C/c1ccc(O)c(O)c1)C(=O)O [L-Chicoric Acid] | – | 1.3%
45 | CC(=O)O[C@]12CCC(C(=O)O)=CC[C@]13CC[C@H]2[C@@](C)(/C=C/C=C(\C)C(=O)O)OC3=O [Pseudolaric Acid C2] | 3.3% | –
46 | CCCCC[C@H](O)/C=C/[C@H]1C(=O)C[C@H](O)[C@@H]1C/C=C\CCCC(=O)O [Prostaglandin D2] | 1.7% | –
47 | CC(C)(C)CC(C)(C)c1ccc(O)cc1 [4-tert-Octylphenol] | -0.1% | –
48 | CC(C)=CCc1c(O)ccc(C(=O)[C@@H]2[C@@H](c3c(O)cc(O)c4c(=O)c(CC=C(C)C)c(-c5ccc(O)cc5O)oc34)C=C(C)C[C@H]2c2ccc(O)cc2O)c1O [Kuwanon H] | 13.4% | –
49 | CC(C)=CCC[C@@H](C)[C@H]1CC[C@H]2[C@@H]3CC=C4C[C@@H](O)CC[C@]4(C)[C@H]3CC[C@]12C [Desmosterol] | -0.3% | –
50 | COc1cc2c(cc1O)-c1c(OC)c(O)cc3c1[C@H](C2)NCC3 [Laetanine] | -1.2% | –
51 | O=C(CC(O)(CC(=O)OCc1ccc(O[C@@H]2O[C@H](CO)[C@@H](O)[C@H](O)[C@H]2O)cc1)C(=O)O)OCc1ccc(O[C@@H]2O[C@H](CO)[C@@H](O)[C@H](O)[C@H]2O)cc1 [Parishin C] | -0.4% | –
52 | O=c1cccccc1O [Tropolone] | 4.3% | –
53 | O=C1O[C@H]([C@@H](O)CO)C(O)=C1O[C@@H]1O[C@H](CO)[C@@H](O)[C@H](O)[C@H]1O [2-O-β-D-Glucopyranosyl-L-ascorbic acid] | 1.4% | –
54 | Nc1ncnc2c1ncn2[C@H]1C[C@H](O)[C@@H](CO)O1 [2'-Deoxyadenosine monohydrate] | – | -2.3%
55 | COc1cc(O[C@@H]2O[C@H](CO[C@@H]3O[C@H](CO)[C@@H](O)[C@H](O)[C@H]3O)[C@@H](O)[C@H](O)[C@H]2O)c2c(O)c3c(=O)oc(C)cc3cc2c1 [Cassiaside C] | -1.8% | –
56 | O=C(CCc1ccc(O)c(O)c1)NCCCNCCCCNCCCNC(=O)CCc1ccc(O)c(O)c1 [Kukoamine A] | 2.2% | –
57 | CCCCCCCC(=O)O [Octanoic acid] | -0.3% | –
58 | CC(CCC(=O)O)C(=O)O (stereo not shown) [2-Methylpentanedioic acid] | -0.3% | –
